Results as given in the supplement of paper PMC11264405.

Key:
Experiment in all cases: minimum inhibitory concentration
linezolid = compound: CC(=O)NC[C@H]1CN(c2ccc(N3CCOCC3)c(F)c2)C(=O)O1 [linezolid]
clindamycin = compound: CCC[C@@H]1C[C@@H](C(=O)N[C@@H]([C@H]2O[C@H](SC)[C@H](O)[C@@H](O)[C@H]2O)[C@H](C)Cl)N(C)C1 [clindamycin]
fidaxomicin = compound: CCc1c(Cl)c(O)c(Cl)c(O)c1C(=O)O[C@H]1[C@H](O)[C@H](OC)[C@H](OC/C2=C\C=C\C[C@H](O)/C(C)=C/[C@H](CC)[C@@H](O[C@@H]3OC(C)(C)[C@@H](OC(=O)C(C)C)[C@H](O)[C@@H]3O)/C(C)=C/C(C)=C/C[C@@H]([C@@H](C)O)OC2=O)O[C@@H]1C [fidaxomicin]
tigecycline = compound: CN(C)c1cc(NC(=O)CNC(C)(C)C)c(O)c2c1C[C@H]1C[C@H]3[C@H](N(C)C)C(O)=C(C(N)=O)C(=O)[C@@]3(O)C(O)=C1C2=O [tigecycline]
vancomycin = compound: CN[C@H](CC(C)C)C(=O)N[C@H]1C(=O)N[C@@H](CC(N)=O)C(=O)N[C@H]2C(=O)N[C@H]3C(=O)N[C@H](C(=O)N[C@H](C(=O)O)c4cc(O)cc(O)c4-c4cc3ccc4O)[C@H](O)c3ccc(c(Cl)c3)Oc3cc2cc(c3O[C@@H]2O[C@H](CO)[C@@H](O)[C@H](O)[C@H]2O[C@H]2C[C@](C)(N)[C@H](O)[C@H](C)O2)Oc2ccc(cc2Cl)[C@H]1O [vancomycin]
rifampicin = compound: CO[C@H]1/C=C/O[C@@]2(C)Oc3c(C)c(O)c4c(O)c(c(/C=N/N5CCN(C)CC5)c(O)c4c3C2=O)NC(=O)/C(C)=C\C=C\[C@H](C)[C@H](O)[C@@H](C)[C@@H](O)[C@@H](C)[C@H](OC(C)=O)[C@@H]1C [rifampicin]
imipenem = compound: C[C@@H](O)[C@H]1C(=O)N2C(C(=O)O)=C(SCCNC=N)C[C@H]12 [imipenem]
meropenem = compound: C[C@@H](O)[C@H]1C(=O)N2C(C(=O)O)=C(S[C@@H]3CN[C@H](C(=O)N(C)C)C3)[C@H](C)[C@H]12 [meropenem]
metronidazole = compound: Cc1ncc([N+](=O)[O-])n1CCO [metronidazole]

Test System | minimum inhibitory concentration (linezolid) [mg/L] | minimum inhibitory concentration (clindamycin) [mg/L] | minimum inhibitory concentration (fidaxomicin) [mg/L] | minimum inhibitory concentration (tigecycline) [mg/L] | minimum inhibitory concentration (vancomycin) [mg/L] | minimum inhibitory concentration (rifampicin) [ng/mL] | minimum inhibitory concentration (imipenem) [mg/L] | minimum inhibitory concentration (meropenem) [mg/L] | minimum inhibitory concentration (metronidazole) [mg/L]
Clostridioides difficile PCR ribotype 058 isolate #169 (European region: North, country: UK, isolate source: Human, ribotype: 058) | 2 | 4 | 0.06 | 0.06 | 1 | < 1 | 2 | 4 | < 0.125
Clostridioides difficile PCR ribotype 062 isolate #331 (European region: West, country: Netherlands, isolate source: Animal, ribotype: 062) | 2 | 2 | 0.008 | < 0.03 | 0.5 | < 1 | 2 | 4 | 0.25
Clostridioides difficile PCR ribotype 064 isolate #170 (European region: North, country: UK, isolate source: Human, ribotype: 064) | 2 | 1 | 0.03 | 0.06 | 0.5 | < 1 | 4 | 2 | 0.5
Clostridioides difficile PCR ribotype 066 isolate #171 (European region: North, country: Sweden, isolate source: Human, ribotype: 066) | 2 | 4 | 0.004 | < 0.03 | 1 | < 1 | 2 | 2 | 0.25
Clostridioides difficile PCR ribotype 070 isolate #172 (European region: East, country: Romania, isolate source: Human, ribotype: 070) | < 0.125 | 4 | 0.015 | < 0.03 | 0.5 | < 1 | 2 | 4 | < 0.125
Clostridioides difficile PCR ribotype 070 isolate #173 (European region: South, country: Italy, isolate source: Human, ribotype: 070) | 2 | 4 | 0.06 | < 0.03 | < 0.125 | < 1 | 2 | 2 | < 0.125
Clostridioides difficile PCR ribotype 073 isolate #174 (European region: South, country: Spain, isolate source: Human, ribotype: 073) | 2 | 8 | 0.03 | < 0.03 | 0.5 | 2 | 4 | 4 | < 0.125
Clostridioides difficile PCR ribotype 073 isolate #175 (European region: South, country: Spain, isolate source: Human, ribotype: 073) | 2 | 1 | 0.015 | < 0.03 | 0.5 | 2 | 4 | 2 | < 0.125
Clostridioides difficile PCR ribotype 073 isolate #332 (European region: West, country: Netherlands, isolate source: Animal, ribotype: 073) | 2 | 16 | 0.06 | 0.25 | 0.5 | < 1 | 2 | 4 | 0.25
Clostridioides difficile PCR ribotype 076 isolate #176 (European region: North, country: UK, isolate source: Human, ribotype: 076) | 2 | 8 | 0.06 | 0.06 | 0.5 | < 1 | 4 | 4 | 0.25
Clostridioides difficile PCR ribotype 078 isolate #179 (European region: North, country: Sweden, isolate source: Human, ribotype: 078) | 2 | 1 | 0.015 | < 0.03 | 1 | < 1 | 2 | 2 | < 0.125
Clostridioides difficile PCR ribotype 078 isolate #180 (European region: West, country: France, isolate source: Human, ribotype: 078) | 2 | 8 | 0.06 | < 0.03 | 0.5 | < 1 | 2 | 2 | 0.25
Clostridioides difficile PCR ribotype 078 isolate #182 (European region: South, country: Spain, isolate source: Human, ribotype: 078) | 2 | 2 | 0.06 | 0.06 | 1 | < 1 | 4 | 2 | < 0.125
Clostridioides difficile PCR ribotype 078 isolate #183 (European region: South, country: Spain, isolate source: Human, ribotype: 078) | 2 | 2 | 0.06 | 0.06 | 0.5 | < 1 | 2 | 2 | < 0.125
Clostridioides difficile PCR ribotype 078 isolate #185 (European region: South, country: Spain, isolate source: Human, ribotype: 078) | 2 | 16 | 0.06 | < 0.03 | 1 | < 1 | 2 | 2 | 0.25
Clostridioides difficile PCR ribotype 078 isolate #186 (European region: East, country: Poland, isolate source: Human, ribotype: 078) | 2 | 16 | 0.06 | < 0.03 | 0.5 | < 1 | 2 | 2 | 0.25
Clostridioides difficile PCR ribotype 078 isolate #187 (European region: North, country: UK, isolate source: Human, ribotype: 078) | 2 | 8 | 0.125 | < 0.03 | 0.5 | < 1 | 1 | 2 | 0.25
Clostridioides difficile PCR ribotype 078 isolate #188 (European region: North, country: UK, isolate source: Human, ribotype: 078) | 2 | 1 | 0.06 | < 0.03 | 1 | < 1 | 2 | 2 | < 0.125
Clostridioides difficile PCR ribotype 078 isolate #189 (European region: South, country: Spain, isolate source: Human, ribotype: 078) | 2 | 4 | 0.03 | 0.06 | 1 | 2 | 4 | 2 | < 0.125
Clostridioides difficile PCR ribotype 078 isolate #190 (European region: South, country: Greece, isolate source: Human, ribotype: 078) | 2 | 8 | 0.03 | < 0.03 | 1 | < 1 | 1 | 2 | 0.25
Clostridioides difficile PCR ribotype 078 isolate #191 (European region: West, country: Netherlands, isolate source: Human, ribotype: 078) | 2 | 8 | 0.03 | 0.06 | 1 | < 1 | 2 | 2 | 0.25
Clostridioides difficile PCR ribotype 078 isolate #192 (European region: West, country: Netherlands, isolate source: Human, ribotype: 078) | 0.25 | 8 | 0.03 | < 0.03 | 0.5 | < 1 | 1 | 2 | 0.25
Clostridioides difficile PCR ribotype 078 isolate #193 (European region: South, country: Italy, isolate source: Human, ribotype: 078) | 2 | 4 | 0.03 | 0.06 | 1 | < 1 | 2 | 2 | < 0.125
Clostridioides difficile PCR ribotype 078 isolate #333 (European region: West, country: Austria, isolate source: Animal, ribotype: 078) | 4 | 2 | 0.03 | 0.06 | 0.5 | < 1 | 4 | 4 | 0.25
Clostridioides difficile PCR ribotype 078 isolate #334 (European region: West, country: Austria, isolate source: Animal, ribotype: 078) | 2 | 2 | 0.03 | 0.06 | 1 | < 1 | 2 | 4 | 0.25
Clostridioides difficile PCR ribotype 078 isolate #335 (European region: West, country: Austria, isolate source: Animal, ribotype: 078) | 2 | 2 | 0.06 | 0.125 | 1 | < 1 | 2 | 2 | < 0.125

Complete entries, quoted from the list. Values in the order: minimum inhibitory concentration (linezolid) [mg/L] | minimum inhibitory concentration (clindamycin) [mg/L] | minimum inhibitory concentration (fidaxomicin) [mg/L] | minimum inhibitory concentration (tigecycline) [mg/L] | minimum inhibitory concentration (vancomycin) [mg/L] | minimum inhibitory concentration (rifampicin) [ng/mL] | minimum inhibitory concentration (imipenem) [mg/L] | minimum inhibitory concentration (meropenem) [mg/L] | minimum inhibitory concentration (metronidazole) [mg/L]
Clostridioides difficile PCR ribotype 078 isolate #192 (European region: West, country: Netherlands, isolate source: Human, ribotype: 078) in the list: 0.25 | 8 | 0.03 | < 0.03 | 0.5 | < 1 | 1 | 2 | 0.25
Clostridioides difficile PCR ribotype 078 isolate #183 (European region: South, country: Spain, isolate source: Human, ribotype: 078) in the list: 2 | 2 | 0.06 | 0.06 | 0.5 | < 1 | 2 | 2 | < 0.125
